Literature values in US20150072003A1, “FORMULATIONS” (Hoffmann-La Roche Inc., priority 2012, published 2015).

Conditions: general statement, no test described

CC(C)c1c(C(=O)Nc2ccccc2)c(-c2ccccc2)c(-c2ccc(F)cc2)n1CC[C@@H](O)C[C@@H](O)CC(=O)O (relative stereo) [Atorvastatin, [R-(R*,R*)]-2-(4-fluorophenyl)-β,δ-dihydroxy-5-(1-methylethyl)-3-phenyl-4-[(phenylamino)carbonyl]-1H-pyrrole-1-heptanoic acid]
stability: unstable, as it is susceptible to heat, moisture, low pH environment and light
